Source: paper PMC2238814
These are yes or no findings as the source states them, for the method shown. Binding seen in cells or lysates may run through a third protein. Some results given as binding are weak or reduced against the parent protein; the word gives no strength. For part of these data: Sequences can lack the tags named with a protein.

Sequences of proteins named here, by UniProt entry; tags and fusion partners are left off.
UniProt P40460: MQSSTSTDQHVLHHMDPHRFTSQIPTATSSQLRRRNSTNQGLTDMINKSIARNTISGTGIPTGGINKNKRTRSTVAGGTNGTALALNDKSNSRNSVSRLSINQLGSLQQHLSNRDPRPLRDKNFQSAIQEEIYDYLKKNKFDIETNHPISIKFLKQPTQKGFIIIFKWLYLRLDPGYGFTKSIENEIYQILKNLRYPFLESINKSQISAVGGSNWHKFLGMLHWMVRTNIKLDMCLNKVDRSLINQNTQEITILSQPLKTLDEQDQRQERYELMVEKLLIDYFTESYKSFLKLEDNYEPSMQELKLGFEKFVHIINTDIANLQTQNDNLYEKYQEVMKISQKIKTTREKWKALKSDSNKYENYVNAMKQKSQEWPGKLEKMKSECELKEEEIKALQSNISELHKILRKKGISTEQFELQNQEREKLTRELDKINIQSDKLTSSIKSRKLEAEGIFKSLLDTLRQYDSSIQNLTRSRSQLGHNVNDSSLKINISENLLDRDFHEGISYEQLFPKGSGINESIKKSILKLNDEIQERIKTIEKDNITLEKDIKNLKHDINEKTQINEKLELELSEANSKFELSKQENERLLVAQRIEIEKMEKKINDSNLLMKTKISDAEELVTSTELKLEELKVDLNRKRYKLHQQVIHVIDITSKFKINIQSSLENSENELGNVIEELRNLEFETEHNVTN
UniProt P40014: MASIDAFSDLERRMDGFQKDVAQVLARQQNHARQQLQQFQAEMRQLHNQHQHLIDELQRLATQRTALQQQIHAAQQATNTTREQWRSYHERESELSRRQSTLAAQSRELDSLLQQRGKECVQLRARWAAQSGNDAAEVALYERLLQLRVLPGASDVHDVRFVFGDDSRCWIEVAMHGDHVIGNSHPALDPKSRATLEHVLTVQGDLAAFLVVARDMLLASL
UniProt Q02732: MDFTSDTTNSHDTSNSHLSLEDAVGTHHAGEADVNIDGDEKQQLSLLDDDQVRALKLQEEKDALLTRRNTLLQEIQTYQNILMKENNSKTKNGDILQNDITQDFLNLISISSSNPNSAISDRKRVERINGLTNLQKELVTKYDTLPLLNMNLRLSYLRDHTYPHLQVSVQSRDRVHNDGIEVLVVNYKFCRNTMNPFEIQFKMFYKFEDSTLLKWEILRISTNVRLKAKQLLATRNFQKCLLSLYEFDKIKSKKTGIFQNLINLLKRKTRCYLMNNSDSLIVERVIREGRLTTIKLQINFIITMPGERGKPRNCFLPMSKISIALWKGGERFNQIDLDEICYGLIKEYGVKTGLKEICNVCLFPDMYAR

B1: Mtw1-HA (protein, UniProt P39731 1-289)
chain: MSAPTMRSTSILTEHLGYPPISLVDDIINAVNEIMYKCTAAMEKYLLSKSKIGEEDYGEEIKSGVAKLESLLENSVDKNFDKLELYVLRNVLRIPEEYLDANVFRLENQKDLVIVDENELKKSEEKLREKVNDVELAFKKNEMLLKRVTKVKRLLFTIRGFKQKLNELLKCKDDVQLQKILESLKPIDDTMTLLTDSLRKLYVDSESTSSTEEVEALLQRLKTNGKQNNKDFRTRYIDIRTNNVLRKLGLLGDKEDEKQSAKPDARTQAGDIVSIDIEEPQLDLLDDVL

Key:
Experiment in all cases: co-IP; anti-myc immunoprecipitation from lysates of log-phase yeast grown at 30°C, wild-type or ybp2Δ strains; Western blot for Ctf19, HA-tagged or myc-tagged proteins
[1] = target: T1, Mtw1-myc (S. cerevisiae) (UniProt P39731)
T1 sequence: B1 chain

[2] = target: Ndc80-myc (S. cerevisiae) (UniProt P40460)
[3] = target: Spc25-myc (S. cerevisiae) (UniProt P40014)

Molecule	binding [1]	binding [2]	binding [3]
Ctf19 (from UniProt Q02732 1-369)	binds	binds	–
B1	–	–	binds
